Measured values published in the supplement of paper PMC10849652.
Some of the results follow.

Sequences of proteins named here, by UniProt entry; tags and fusion partners are left off. A change or cut given only in a name is not applied to a line headed by its entry.
UniProt P18887, whole entry, looked up: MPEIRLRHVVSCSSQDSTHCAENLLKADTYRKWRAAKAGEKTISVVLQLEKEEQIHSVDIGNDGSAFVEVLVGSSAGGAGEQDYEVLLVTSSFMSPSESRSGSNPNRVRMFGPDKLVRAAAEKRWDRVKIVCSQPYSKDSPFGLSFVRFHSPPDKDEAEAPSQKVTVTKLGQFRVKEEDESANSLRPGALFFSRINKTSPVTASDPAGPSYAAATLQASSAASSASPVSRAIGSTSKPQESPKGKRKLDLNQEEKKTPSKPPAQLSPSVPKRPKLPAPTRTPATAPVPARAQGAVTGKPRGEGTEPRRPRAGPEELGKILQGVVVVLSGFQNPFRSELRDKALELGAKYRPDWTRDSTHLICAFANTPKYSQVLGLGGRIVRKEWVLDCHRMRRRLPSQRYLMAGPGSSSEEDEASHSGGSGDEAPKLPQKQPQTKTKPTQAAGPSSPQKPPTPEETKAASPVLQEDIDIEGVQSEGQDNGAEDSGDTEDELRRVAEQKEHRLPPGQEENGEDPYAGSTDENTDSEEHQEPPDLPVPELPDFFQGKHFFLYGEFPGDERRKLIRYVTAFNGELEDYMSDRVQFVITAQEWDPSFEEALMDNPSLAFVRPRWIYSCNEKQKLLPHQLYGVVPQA
UniProt Q13426: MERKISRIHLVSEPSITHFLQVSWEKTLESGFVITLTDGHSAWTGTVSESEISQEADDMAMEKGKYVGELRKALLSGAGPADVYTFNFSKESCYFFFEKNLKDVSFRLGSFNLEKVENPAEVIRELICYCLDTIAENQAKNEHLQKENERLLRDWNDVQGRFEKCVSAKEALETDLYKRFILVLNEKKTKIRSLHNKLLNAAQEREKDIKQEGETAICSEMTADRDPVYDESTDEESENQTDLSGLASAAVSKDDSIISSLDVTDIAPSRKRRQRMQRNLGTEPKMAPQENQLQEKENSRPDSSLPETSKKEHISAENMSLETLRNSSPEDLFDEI
UniProt Q9H8U3: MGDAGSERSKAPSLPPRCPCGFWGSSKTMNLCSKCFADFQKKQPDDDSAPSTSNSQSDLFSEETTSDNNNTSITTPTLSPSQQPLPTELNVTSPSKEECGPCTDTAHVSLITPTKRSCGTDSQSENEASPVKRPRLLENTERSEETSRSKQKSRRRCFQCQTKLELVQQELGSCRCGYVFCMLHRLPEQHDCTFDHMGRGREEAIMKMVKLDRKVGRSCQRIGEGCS
UniProt Q8IZH2: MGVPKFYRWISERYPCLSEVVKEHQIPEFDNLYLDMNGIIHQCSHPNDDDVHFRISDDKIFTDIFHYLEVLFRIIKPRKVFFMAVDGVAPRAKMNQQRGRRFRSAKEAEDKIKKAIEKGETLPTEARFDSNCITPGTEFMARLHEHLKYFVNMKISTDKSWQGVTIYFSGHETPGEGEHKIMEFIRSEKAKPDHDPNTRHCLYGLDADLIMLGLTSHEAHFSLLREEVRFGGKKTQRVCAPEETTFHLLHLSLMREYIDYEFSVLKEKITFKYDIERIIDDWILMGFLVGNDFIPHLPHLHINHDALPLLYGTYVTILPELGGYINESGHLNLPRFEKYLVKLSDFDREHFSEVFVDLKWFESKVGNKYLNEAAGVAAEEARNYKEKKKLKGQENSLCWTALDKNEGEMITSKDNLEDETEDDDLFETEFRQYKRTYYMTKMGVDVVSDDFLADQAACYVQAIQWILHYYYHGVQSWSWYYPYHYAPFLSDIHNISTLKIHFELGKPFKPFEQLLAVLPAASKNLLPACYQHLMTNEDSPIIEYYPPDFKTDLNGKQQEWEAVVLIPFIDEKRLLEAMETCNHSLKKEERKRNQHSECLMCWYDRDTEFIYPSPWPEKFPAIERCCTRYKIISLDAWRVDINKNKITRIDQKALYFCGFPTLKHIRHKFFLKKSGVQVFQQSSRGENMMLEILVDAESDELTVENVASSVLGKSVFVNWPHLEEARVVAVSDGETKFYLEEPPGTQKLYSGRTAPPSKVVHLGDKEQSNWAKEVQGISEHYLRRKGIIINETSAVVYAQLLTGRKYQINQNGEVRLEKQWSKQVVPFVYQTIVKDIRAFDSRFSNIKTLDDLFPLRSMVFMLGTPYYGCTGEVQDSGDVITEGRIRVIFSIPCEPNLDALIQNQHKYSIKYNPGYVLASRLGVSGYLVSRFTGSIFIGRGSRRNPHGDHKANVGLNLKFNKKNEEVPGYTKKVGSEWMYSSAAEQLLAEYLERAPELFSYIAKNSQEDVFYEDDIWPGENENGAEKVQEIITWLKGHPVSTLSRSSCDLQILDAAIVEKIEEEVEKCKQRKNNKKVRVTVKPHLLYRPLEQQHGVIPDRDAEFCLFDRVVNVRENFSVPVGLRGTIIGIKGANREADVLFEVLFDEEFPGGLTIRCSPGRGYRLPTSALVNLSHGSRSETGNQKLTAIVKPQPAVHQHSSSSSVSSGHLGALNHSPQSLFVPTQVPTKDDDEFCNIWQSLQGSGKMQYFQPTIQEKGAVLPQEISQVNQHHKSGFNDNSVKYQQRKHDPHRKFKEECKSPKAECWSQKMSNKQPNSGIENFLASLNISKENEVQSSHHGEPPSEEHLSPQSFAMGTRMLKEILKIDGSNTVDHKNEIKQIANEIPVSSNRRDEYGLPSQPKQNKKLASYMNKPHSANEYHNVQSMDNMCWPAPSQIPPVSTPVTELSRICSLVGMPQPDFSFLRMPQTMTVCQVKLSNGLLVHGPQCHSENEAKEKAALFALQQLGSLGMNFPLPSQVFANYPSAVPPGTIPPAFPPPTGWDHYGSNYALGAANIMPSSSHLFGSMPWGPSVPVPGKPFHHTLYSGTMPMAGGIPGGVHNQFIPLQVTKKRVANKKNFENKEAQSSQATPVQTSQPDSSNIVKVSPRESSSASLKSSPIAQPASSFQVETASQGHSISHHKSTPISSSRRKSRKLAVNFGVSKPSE
UniProt Q9NP64: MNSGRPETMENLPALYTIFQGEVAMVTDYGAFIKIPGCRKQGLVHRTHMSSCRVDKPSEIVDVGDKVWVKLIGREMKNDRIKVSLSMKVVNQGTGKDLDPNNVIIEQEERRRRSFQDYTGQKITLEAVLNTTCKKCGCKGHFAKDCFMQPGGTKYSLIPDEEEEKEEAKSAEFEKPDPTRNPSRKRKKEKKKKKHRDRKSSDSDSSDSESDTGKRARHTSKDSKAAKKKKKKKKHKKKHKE
UniProt Q9BSR8: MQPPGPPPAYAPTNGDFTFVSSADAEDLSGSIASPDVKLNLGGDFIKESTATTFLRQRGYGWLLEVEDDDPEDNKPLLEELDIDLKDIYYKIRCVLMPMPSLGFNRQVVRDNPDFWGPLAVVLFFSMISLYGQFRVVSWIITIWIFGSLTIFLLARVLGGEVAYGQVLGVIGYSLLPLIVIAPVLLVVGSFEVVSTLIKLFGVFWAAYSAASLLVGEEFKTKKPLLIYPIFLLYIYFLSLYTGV
UniProt Q9UBH6: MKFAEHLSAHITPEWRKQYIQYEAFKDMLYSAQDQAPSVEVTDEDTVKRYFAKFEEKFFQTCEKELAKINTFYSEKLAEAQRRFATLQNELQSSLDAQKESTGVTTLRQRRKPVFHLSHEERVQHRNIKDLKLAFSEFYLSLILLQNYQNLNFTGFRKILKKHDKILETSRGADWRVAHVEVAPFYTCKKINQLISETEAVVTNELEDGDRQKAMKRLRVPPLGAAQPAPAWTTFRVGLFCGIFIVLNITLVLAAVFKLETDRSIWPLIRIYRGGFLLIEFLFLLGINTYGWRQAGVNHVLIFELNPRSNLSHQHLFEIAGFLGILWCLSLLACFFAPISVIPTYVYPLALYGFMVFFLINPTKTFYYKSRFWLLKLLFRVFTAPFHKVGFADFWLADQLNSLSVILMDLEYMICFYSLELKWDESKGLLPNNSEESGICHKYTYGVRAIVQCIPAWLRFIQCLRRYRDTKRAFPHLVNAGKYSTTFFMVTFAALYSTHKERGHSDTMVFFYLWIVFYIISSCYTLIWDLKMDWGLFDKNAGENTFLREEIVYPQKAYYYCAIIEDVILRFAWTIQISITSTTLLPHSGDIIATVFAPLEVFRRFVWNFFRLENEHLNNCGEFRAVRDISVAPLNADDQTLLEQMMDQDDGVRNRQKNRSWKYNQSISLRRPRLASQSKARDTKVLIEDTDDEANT
UniProt Q5BJH7: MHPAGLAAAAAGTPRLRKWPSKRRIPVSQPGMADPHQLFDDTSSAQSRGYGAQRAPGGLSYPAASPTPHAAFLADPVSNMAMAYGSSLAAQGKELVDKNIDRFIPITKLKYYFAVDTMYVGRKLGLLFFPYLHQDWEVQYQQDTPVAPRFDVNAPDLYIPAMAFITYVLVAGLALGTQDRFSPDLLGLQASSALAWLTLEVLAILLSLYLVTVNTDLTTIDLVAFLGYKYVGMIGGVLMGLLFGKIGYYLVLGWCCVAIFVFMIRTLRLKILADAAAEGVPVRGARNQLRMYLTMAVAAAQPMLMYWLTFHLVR
UniProt Q8N5P1: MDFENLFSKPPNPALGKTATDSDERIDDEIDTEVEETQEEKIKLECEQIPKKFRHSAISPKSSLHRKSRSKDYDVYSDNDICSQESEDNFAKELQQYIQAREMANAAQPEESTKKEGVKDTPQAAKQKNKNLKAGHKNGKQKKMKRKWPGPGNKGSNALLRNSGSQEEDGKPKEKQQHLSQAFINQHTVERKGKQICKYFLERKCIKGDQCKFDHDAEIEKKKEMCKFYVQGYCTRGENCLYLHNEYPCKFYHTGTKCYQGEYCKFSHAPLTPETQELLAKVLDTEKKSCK
UniProt P13010: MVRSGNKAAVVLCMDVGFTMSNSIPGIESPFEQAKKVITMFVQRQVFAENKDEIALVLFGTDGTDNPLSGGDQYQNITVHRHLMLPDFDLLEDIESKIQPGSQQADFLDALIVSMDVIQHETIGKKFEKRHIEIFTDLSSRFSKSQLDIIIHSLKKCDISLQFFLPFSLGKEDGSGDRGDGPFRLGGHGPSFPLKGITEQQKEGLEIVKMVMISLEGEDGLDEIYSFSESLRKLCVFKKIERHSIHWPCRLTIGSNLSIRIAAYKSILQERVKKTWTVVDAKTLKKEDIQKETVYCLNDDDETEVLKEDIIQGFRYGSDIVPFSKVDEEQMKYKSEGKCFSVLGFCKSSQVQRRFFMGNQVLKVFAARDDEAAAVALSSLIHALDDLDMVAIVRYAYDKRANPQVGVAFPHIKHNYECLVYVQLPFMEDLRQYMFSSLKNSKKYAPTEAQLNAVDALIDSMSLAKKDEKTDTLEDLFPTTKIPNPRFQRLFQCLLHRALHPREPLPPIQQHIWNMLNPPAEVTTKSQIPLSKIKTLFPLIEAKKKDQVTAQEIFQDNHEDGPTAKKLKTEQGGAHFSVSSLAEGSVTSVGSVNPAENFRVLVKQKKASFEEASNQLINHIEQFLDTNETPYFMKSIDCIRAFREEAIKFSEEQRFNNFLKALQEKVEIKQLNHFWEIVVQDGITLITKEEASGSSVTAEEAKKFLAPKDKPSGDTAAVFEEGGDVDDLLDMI
UniProt Q9NUD5: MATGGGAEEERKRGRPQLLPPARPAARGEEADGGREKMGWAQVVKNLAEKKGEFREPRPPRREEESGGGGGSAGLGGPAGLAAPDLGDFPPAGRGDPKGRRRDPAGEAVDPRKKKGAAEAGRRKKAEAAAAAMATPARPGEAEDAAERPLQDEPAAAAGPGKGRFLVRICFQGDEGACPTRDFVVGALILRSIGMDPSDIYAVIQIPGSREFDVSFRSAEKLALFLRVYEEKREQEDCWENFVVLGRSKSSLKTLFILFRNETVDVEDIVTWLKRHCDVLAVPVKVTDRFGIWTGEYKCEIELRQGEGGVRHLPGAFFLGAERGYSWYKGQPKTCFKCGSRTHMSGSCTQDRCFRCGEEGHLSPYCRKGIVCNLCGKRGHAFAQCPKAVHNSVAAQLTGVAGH
UniProt Q96TA2: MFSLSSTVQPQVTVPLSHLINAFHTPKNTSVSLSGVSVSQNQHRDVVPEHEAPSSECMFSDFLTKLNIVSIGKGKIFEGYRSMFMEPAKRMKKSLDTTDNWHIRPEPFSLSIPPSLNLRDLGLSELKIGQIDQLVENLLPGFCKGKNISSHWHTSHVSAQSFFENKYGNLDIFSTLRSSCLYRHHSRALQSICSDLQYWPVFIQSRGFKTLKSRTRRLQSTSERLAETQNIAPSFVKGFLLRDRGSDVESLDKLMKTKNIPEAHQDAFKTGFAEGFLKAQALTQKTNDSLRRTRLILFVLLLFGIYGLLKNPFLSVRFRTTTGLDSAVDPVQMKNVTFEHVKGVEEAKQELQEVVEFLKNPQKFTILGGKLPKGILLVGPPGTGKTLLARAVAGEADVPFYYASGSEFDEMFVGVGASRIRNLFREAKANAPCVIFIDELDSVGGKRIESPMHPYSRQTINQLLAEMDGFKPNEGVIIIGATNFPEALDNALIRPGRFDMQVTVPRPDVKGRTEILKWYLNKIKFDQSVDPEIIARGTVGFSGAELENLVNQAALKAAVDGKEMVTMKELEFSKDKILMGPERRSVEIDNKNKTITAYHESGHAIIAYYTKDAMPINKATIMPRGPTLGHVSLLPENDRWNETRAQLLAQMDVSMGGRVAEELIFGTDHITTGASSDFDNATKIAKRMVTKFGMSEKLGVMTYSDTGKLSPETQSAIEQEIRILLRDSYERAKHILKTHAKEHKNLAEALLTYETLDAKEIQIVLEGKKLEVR

These targets were tested with CS(=O)(=O)CCNCc1ccc(-c2ccc3ncnc(Nc4ccc(OCc5cccc(F)c5)c(Cl)c4)c3c2)o1 [lapatinib] (assay: log2 fold change, soluble protein after heating vs DMSO (PISA); higher = thermal stabilisation; K562 lysate, 10 uM; active = over 0.2 and 3.5 SD of the protein, either way, in both replicates (recomputed)).
Summary of the method: (§1)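 Pellets of K562 cells were dounce-homogenised in PBS pH 7.4 with 1 mM MgCl2, and the crude extract was held at 1 mg/mL protein for a 30 min treatment with 10 μM compound. Aliquots were heated for 3 min over 48°C-58°C and pooled before NP-40 was added to 0.5% at 4°C. The supernatant from 21,000xg for 90 min was quantified by TMTpro 16plex LC-MS/MS with channel sums equalised. Values are reported from duplicates as log-two fold change in thermal stability relative to solvent controls.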

| Target | log2 fold change |
| --- | --- |
| YKT6 (UniProt O15498) | inactive: -0.003 |
| ZFC3H1 (UniProt O60293) | inactive: 0.016 |
| ZBTB24 (UniProt O43167) | inactive: -0.032 |
| XYLB (UniProt O75191) | inactive: -0.042 |
| XPO7 (UniProt Q9UIA9) | inactive: -0.016 |
| XRCC1 (UniProt P18887) | inactive: -0.018 |
| YPEL5 (UniProt P62699) | inactive: -0.089 |
| YOD1 (UniProt Q5VVQ6) | inactive: 0 |
| ZBTB10 (UniProt Q96DT7) | inactive: 0.09 |
| YBX3 (UniProt P16989) | inactive: -0.023 |
| YAF2 isoform 5 (UniProt Q8IY57) | inactive: -0.066 |
| XRCC4 (UniProt Q13426) | inactive: -0.002 |
| ZFAND3 (UniProt Q9H8U3) | inactive: -0.095 |
| ZBTB8OS (UniProt Q8IWT0) | inactive: -0.008 |
| XRCC5 (UniProt C9JZ81) | inactive: -0.111 |
| XRN1 (UniProt Q8IZH2) | inactive: 0.005 |
| ZFYVE21 isoform 2 (UniProt Q9BQ24) | inactive: 0 |
| ZCCHC17 (UniProt Q9NP64) | inactive: 0.048 |
| YIPF4 (UniProt Q9BSR8) | inactive: -0.017 |
| XPR1 (UniProt Q9UBH6) | inactive: 0.025 |

| Target | log2 fold change |
| --- | --- |
| YWHAQ (UniProt P27348) | inactive: 0.001 |
| ZDHHC20 (UniProt Q5W0Z9) | inactive: 0.016 |
| YTHDF1 (UniProt Q9BYJ9) | inactive: 0.02 |
| ZDHHC5 (UniProt Q9C0B5) | inactive: -0.018 |
| YIF1B (UniProt Q5BJH7) | inactive: -0.016 |
| ZC3H14 (UniProt Q6PJT7) | inactive: -0.015 |
| YLPM1 (UniProt P49750) | inactive: 0.031 |
| ZBED1 (UniProt O96006) | inactive: 0.024 |
| ZFYVE9 (UniProt O95405) | inactive: -0.032 |
| YARS2 (UniProt Q9Y2Z4) | inactive: 0.005 |
| YWHAH (UniProt Q04917) | inactive: -0.016 |
| ZC3H8 (UniProt Q8N5P1) | inactive: -0.066 |
| XPOT (UniProt F5GYW6) | inactive: -0.115 |
| XPO6 (UniProt Q96QU8) | inactive: -0.012 |
| XRCC5 (UniProt P13010) | inactive: -0.016 |
| ZCCHC3 (UniProt Q9NUD5) | inactive: -0.02 |
| YTHDF3 (UniProt Q7Z739) | inactive: -0.065 |
| YME1L1 (UniProt Q96TA2) | inactive: -0.025 |
| ZC3H13 (UniProt Q5T200) | inactive: -0.013 |
| ZBTB21 (UniProt Q9ULJ3) | inactive: -0.001 |

These targets were tested with CS(=O)(=O)N1CCN(Cc2cc3nc(-c4cccc5[nH]ncc45)nc(N4CCOCC4)c3s2)CC1 [pictilisib] in the same assay as above.
Summary of the method: as §1

| Target | log2 fold change |
| --- | --- |
| YKT6 (UniProt O15498) | inactive: -0.036 |
| ZFC3H1 (UniProt O60293) | inactive: 0.077 |
| ZBTB24 (UniProt O43167) | inactive: -0.055 |
| XYLB (UniProt O75191) | inactive: -0.001 |
| XPO7 (UniProt Q9UIA9) | inactive: -0.02 |
| XRCC1 (UniProt P18887) | inactive: -0.018 |
| YPEL5 (UniProt P62699) | inactive: 0.054 |
| YOD1 (UniProt Q5VVQ6) | inactive: -0.026 |
| ZBTB10 (UniProt Q96DT7) | inactive: -0.05 |
| YBX3 (UniProt P16989) | inactive: 0.061 |
| YAF2 isoform 5 (UniProt Q8IY57) | inactive: 0.071 |
| XRCC4 (UniProt Q13426) | inactive: -0.014 |
| ZFAND3 (UniProt Q9H8U3) | inactive: -0.057 |
| ZBTB8OS (UniProt Q8IWT0) | inactive: 0.013 |
| XRN1 (UniProt Q8IZH2) | inactive: -0.123 |
| ZFYVE21 isoform 2 (UniProt Q9BQ24) | inactive: -0.081 |
| ZCCHC17 (UniProt Q9NP64) | inactive: 0.025 |
| YIPF4 (UniProt Q9BSR8) | inactive: 0.035 |
| XPR1 (UniProt Q9UBH6) | inactive: -0.01 |

| Target | log2 fold change |
| --- | --- |
| YWHAQ (UniProt P27348) | inactive: 0.038 |
| ZDHHC20 (UniProt Q5W0Z9) | inactive: -0.025 |
| YTHDF1 (UniProt Q9BYJ9) | inactive: -0.159 |
| ZDHHC5 (UniProt Q9C0B5) | inactive: -0.037 |
| YIF1B (UniProt Q5BJH7) | inactive: 0.032 |
| ZC3H14 (UniProt Q6PJT7) | inactive: -0.005 |
| YLPM1 (UniProt P49750) | inactive: -0.019 |
| ZBED1 (UniProt O96006) | inactive: -0.031 |
| ZFYVE9 (UniProt O95405) | inactive: -0.089 |
| YARS2 (UniProt Q9Y2Z4) | inactive: -0.002 |
| YWHAH (UniProt Q04917) | inactive: 0.044 |
| ZC3H8 (UniProt Q8N5P1) | inactive: 0.007 |
| XPO6 (UniProt Q96QU8) | inactive: -0.069 |
| XRCC5 (UniProt P13010) | inactive: -0.009 |
| ZCCHC3 (UniProt Q9NUD5) | inactive: 0.014 |
| YTHDF3 (UniProt Q7Z739) | inactive: 0.05 |
| YME1L1 (UniProt Q96TA2) | inactive: -0.034 |
| ZC3H13 (UniProt Q5T200) | inactive: -0.022 |
| ZBTB21 (UniProt Q9ULJ3) | inactive: -0.021 |
